Values quoted from earlier work, collected in US20020061509A1, “Screening assay for the identification of agents which alter expression of PTH-rP” (Osteo Screen, priority 1996, published 2002).

Settings: cited from earlier work

**Q.** With `C[C@@H]1C[C@H]2[C@@H]3CCC4=CC(=O)C=C[C@]4(C)[C@@]3(F)[C@@H](O)C[C@]2(C)[C@@]1(O)C(=O)CO` [Dexamethasone, pregna-1,4-diene-3,20-dione,9-fluoro-11,17,21-trihydroxy-16-methyl-(11β,16α), reference compound] as the molecule, how does the solubility in water read?
**A.** practically insoluble
